For this series, the target named is T1, RuvA wild type (Escherichia coli) (UniProt P0A809).
T1 sequence (looked up): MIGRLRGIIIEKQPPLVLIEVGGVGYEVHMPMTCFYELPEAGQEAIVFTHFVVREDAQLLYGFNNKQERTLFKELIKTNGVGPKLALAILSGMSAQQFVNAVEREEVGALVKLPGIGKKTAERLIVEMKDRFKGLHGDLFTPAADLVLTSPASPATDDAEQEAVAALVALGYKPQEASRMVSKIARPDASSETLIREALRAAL
Kind of series: EMSA. To be noted: 3 mM Mg2+, octamer complex; EMSA with ~4-5 ng labelled DNA; 5 mM EDTA (gel 0.5x TBE) or 3 mM MgCl2 without EDTA (gel 0.5x TB + 200 uM MgCl2); recombinant protein; residues 1-203; label: 5' IRD700 on S24 (IT.01); folded or branched DNA. In general terms: In EMSA bound probe runs differently from free probe, usually more slowly.

The source of these data is PMC2265524, “ruvA Mutants That Resolve Holliday Junctions but Do Not Reverse Replication Forks” (PLoS Genetics, 2008).

Construct, isoform or probe ends are uncertain for at least one entry. At least one verdict rests on a figure or table, not on a statement of the authors. Tags and fusion partners may be left off the protein sequences shown.

“GACGCTGCCGAATTCTACCAGTGCCTTGCTAGGACATCTTTGCCCACCTGCAGGTTCACCC / TGGGTGAACCTGCAGGTGGGCAAAGATGTCCTAGCAATGTAATCGTCAAGCTTTATGCCGTT / CAACGGCATAAAGCTTGACGATTACATTGCTAGGACATGCTGTCTAGAGGATCCGACTATCGA / ATCGATAGTCGGATCCTCTAGACAGCATGTCCTAGCAAGGCACTGGTAGAATTCGGCAGCGT [X12 (synthetic Holliday junction)]”: the binding result was “binds”.
